In publication doi:10.1101/2020.11.16.384271 one finds binding data, which are given here for 1 molecule.

By UniProt entry, the sequences of proteins in these tests, tags left out. Residues count along the entry.
UniProt P52948, residues 1-880: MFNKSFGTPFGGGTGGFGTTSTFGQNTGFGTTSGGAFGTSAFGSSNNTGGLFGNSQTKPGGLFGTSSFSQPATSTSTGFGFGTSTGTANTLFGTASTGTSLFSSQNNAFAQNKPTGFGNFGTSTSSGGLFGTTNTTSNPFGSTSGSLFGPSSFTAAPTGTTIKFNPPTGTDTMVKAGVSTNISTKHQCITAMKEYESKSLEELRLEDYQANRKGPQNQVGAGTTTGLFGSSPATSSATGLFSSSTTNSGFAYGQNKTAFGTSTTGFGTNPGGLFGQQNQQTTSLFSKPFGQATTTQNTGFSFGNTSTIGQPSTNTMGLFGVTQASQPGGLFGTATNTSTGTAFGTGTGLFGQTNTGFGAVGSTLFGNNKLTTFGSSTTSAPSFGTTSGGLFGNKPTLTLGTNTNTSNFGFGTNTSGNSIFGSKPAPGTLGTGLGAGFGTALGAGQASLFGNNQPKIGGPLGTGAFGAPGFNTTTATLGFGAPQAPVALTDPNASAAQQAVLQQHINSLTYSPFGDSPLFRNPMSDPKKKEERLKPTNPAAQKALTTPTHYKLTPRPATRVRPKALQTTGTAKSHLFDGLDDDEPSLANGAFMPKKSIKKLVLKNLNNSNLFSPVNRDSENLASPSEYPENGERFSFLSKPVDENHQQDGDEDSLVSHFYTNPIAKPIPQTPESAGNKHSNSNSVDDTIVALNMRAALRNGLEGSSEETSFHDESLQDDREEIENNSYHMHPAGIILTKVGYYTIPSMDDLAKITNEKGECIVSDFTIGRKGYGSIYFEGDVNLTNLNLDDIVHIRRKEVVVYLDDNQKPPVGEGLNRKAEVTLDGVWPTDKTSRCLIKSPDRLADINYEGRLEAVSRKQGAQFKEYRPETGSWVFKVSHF

These are yes or no findings as the source states them, for the method shown. In cells and extracts the contact can be indirect. Some entries that bind do so weakly or less than the wild type.

For the experiment, the target named is endogenous NUP98 (Nucleoporin 98) (human (endogenous in HL-60)) (UniProt P52948). Put plainly: co-IP.

B1: mRNA export factor RAE1 (protein, UniProt P78406 1-368)
chain: MSLFGTTSGFGTSGTSMFGSATTDNHNPMKDIEVTSSPDDSIGCLSFSPPTLPGNFLIAGSWANDVRCWEVQDSGQTIPKAQQMHTGPVLDVCWSDDGSKVFTASCDKTAKMWDLSSNQAIQIAQHDAPVKTIHWIKAPNYSCVMTGSWDKTLKFWDTRSSNPMMVLQLPERCYCADVIYPMAVVATAERGLIVYQLENQPSEFRRIESPLKHQHRCVAIFKDKQNKPTGFALGSIEGRVAIHYINPPNPAKDNFTFKCHRSNGTNTSAPQDIYAVNGIAFHPVHGTLATVGSDGRFSFWDKDARTKLKTSEQLDQPISACCFNHNGNIFAYASSYDWSKGHEFYNPQKKNYIFLRNAAEELKPRNKK
Consider B1, for which the binding entry is “binds”.
